# PubChem BioAssay AID1259424 – University of Nebraska Medical Center, 2018
# Purpose: 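Seek colon cancer survival genes behaving like KSR1, using a six-gene signature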 (primary screen)
# Cell system: human HCT116 colon cancer cells
# Knock-down reagent: siRNA pool against human genes, 50 nM
# Read-out: 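Six signature mRNAs by branched-DNA multiplex assay, scaled to two housekeeping genes and non-targeting median, log2; matched to mean KSR1 knockdown profile by Pearson correlation and euclidean distance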
# Reading the numbers: mean correlation with KSR1 profile: higher = expression change more like KSR1 knockdown; mean distance from KSR1 profile: higher = expression change less like KSR1 knockdown
# Shown is a random part of about 14,000 deposited reagents. 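Higher correlation or smaller distance means closer resemblance to KSR1 loss; control wells, including KSR1 knockdowns, recur on many plates.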 Further read-outs or replicates are left out here. Not stated in the record: the time to read-out.
gene symbol,PubChem SID,mean correlation with KSR1 profile,mean distance from KSR1 profile
KIAA0040,SID363999013,0.0742,1.69
TRMT9B (tRNA methyltransferase 9B (putative)),SID364001862,-0.358,2.62
VGF (VGF nerve growth factor inducible),SID363994490,-0.00163,1.4
JAKMIP2 (janus kinase and microtubule interacting protein 2),SID363999107,0.134,2.34
CYREN (cell cycle regulator of NHEJ),SID364002694,-0.351,1.31
DONSON (DNA replication fork stabilization factor DONSON),SID364004672,-0.324,3.28
ZNF160 (zinc finger protein 160),SID364004355,-0.2,2.27
GJA1 (gap junction protein alpha 1),SID363991501,-0.579,2.4
EIF2S1 (eukaryotic translation initiation factor 2 subunit alpha),SID363995104,-0.234,5.82
PCBP3 (poly(rC) binding protein 3),SID364001725,-0.328,2.61
SENP3 (SUMO specific peptidase 3),SID363999638,-0.136,4.31
PPP5C (protein phosphatase 5 catalytic subunit),SID363997071,-0.12,2.72
PEX14 (peroxisomal biogenesis factor 14),SID363995536,0.0212,1.8
PRPF19 (pre-mRNA processing factor 19),SID363998910,-0.0939,3.47
MTBP (MDM2 binding protein),SID364002284,-0.845,1.9
ERAP1 (endoplasmic reticulum aminopeptidase 1),SID364000109,0.0253,1.75
FNBP1L (formin binding protein 1 like),SID364000484,0.209,2.23
SUCLG2 (succinate-CoA ligase GDP-forming subunit beta),SID363994909,0.291,2.62
SLA (Src like adaptor),SID363997519,-0.102,5.11
GLS (glutaminase),SID363999186,-0.572,2.87
BECN1 (beclin 1),SID363994831,0.00249,2.51
ARRDC1-AS1 (ARRDC1 antisense RNA 1),SID364004280,0.243,2.31
SPO11 (SPO11 initiator of meiotic double strand breaks),SID363998320,0.389,1.14
INPP5D (inositol polyphosphate-5-phosphatase D),SID363996441,0.225,2.92
ANKRD10 (ankyrin repeat domain 10),SID364000430,-0.0105,2.43
ALDH1A3 (aldehyde dehydrogenase 1 family member A3),SID363991992,-0.144,3.84
DDX18 (DEAD-box helicase 18),SID363997543,-0.392,2.9
DNAJC14 (DnaJ heat shock protein family (Hsp40) member C14),SID364003946,0.0319,2.1
DHRS2 (dehydrogenase/reductase 2),SID363996672,0.261,2.27
ZBTB17 (zinc finger and BTB domain containing 17),SID363994544,0.485,2.58
MTOR (mechanistic target of rapamycin kinase),SID363995900,0.645,2.04
POU2F2 (POU class 2 homeobox 2),SID363993858,0.1,1.53
FYTTD1 (forty-two-three domain containing 1),SID364003876,0.896,1.06
GTPBP1 (GTP binding protein 1),SID363995280,0.26,1.58
NDUFAF5 (NADH:ubiquinone oxidoreductase complex assembly factor 5),SID364004989,-0.698,2.82
ZNF182 (zinc finger protein 182),SID364005278,0.73,1.82
HPS4 (HPS4 biogenesis of lysosomal organelles complex 3 subunit 2),SID364002313,0.0553,1.75
OTX1 (orthodenticle homeobox 1),SID363998934,0.85,1.37
PIN1P1,SID363997046,0.313,2.54
HTN3 (histatin 3),SID363991536,-0.397,2.01
SCAND2P (SCAN domain containing 2 pseudogene),SID364002289,-0.575,2.59
TUBB1 (tubulin beta 1 class VI),SID364003426,0.0059,2.01
RAB3GAP2 (RAB3 GTPase activating non-catalytic protein subunit 2),SID363998298,-0.172,1.49
TUBB7P (tubulin beta 7 pseudogene),SID364001474,0.162,2.68
"PIKFYVE (phosphoinositide kinase, FYVE-type zinc finger containing)",SID363999267,0.301,2.4
FOXJ2 (forkhead box J2),SID364001054,0.0308,2.6
BPIFA1 (BPI fold containing family A member 1),SID364000213,-0.687,2.34
RBM26 (RNA binding motif protein 26),SID364002345,-0.468,3.74
"CPXM1 (carboxypeptidase X, M14 family member 1)",SID364001437,-0.346,2.17
TRPM4,SID364000407,-0.476,1.55

Records listed so far whose target name starts with G or g (3):
gene symbol,PubChem SID,mean correlation with KSR1 profile,mean distance from KSR1 profile
GJA1 (gap junction protein alpha 1),SID363991501,-0.579,2.4
GLS (glutaminase),SID363999186,-0.572,2.87
GTPBP1 (GTP binding protein 1),SID363995280,0.26,1.58
